Results deposited as PubChem BioAssay AID1159584 (Peter MacCallum Cancer Centre, 2016).
Test: 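Genes that CDH1-null MCF10A cells selectively depend on to survive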 (primary screen). Cell system: human MCF10A breast epithelial cells, parental and CDH1-null. Knock-down reagent: siRNA against human genes. Measured: 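Cell viability by CellTiter-Glo ATP luminescence, each line scaled to the mean of mock wells across plates, then CDH1-null over parental ratio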. Reading the numbers: CDH1-null / parental viability ratio: higher = CDH1-null cells survive relatively better than parental; CDH1-null viability vs mock: higher = more viable CDH1-null cells.
The deposit covers about 18,000 reagents; shown is an unselected part. Further read-outs or replicates are left out here. The record does not give: the amount of reagent, the time to read-out.

| gene | CDH1-null / parental viability ratio | CDH1-null viability vs mock (fraction of mock) |
| --- | --- | --- |
| MELTF (melanotransferrin) | 1.1 | 0.9 |
| ROGDI (rogdi atypical leucine zipper) | 1.2 | 0.48 |
| UBE2D1 (ubiquitin conjugating enzyme E2 D1) | 1.48 | 0.68 |
| MRPL27 (mitochondrial ribosomal protein L27) | 0.83 | 0.7 |
| SLAMF9 (SLAM family member 9) | 1.08 | 0.82 |
| TAOK1 (TAO kinase 1) | 1.06 | 1 |
| PIBF1 (progesterone immunomodulatory binding factor 1) | 1.06 | 0.87 |
| UVSSA (UV stimulated scaffold protein A) | 1.02 | 0.62 |
| GPX5 (glutathione peroxidase 5) | 0.98 | 0.56 |
| OR6K6 (olfactory receptor family 6 subfamily K member 6) | 0.84 | 0.64 |
| PIP5K1C (phosphatidylinositol-4-phosphate 5-kinase type 1 gamma) | 0.87 | 0.97 |
| VIPR2 (vasoactive intestinal peptide receptor 2) | 0.8 | 0.77 |
| LMO2 (LIM domain only 2) | 1 | 0.94 |
| LRRTM3 (leucine rich repeat transmembrane neuronal 3) | 1.18 | 0.8 |
| STAM2 (signal transducing adaptor molecule 2) | 0.92 | 1.09 |
| RPS25 (ribosomal protein S25) | 0.95 | 0.57 |
| ITGB1BP1 (integrin subunit beta 1 binding protein 1) | 0.58 | 0.3 |
| CASQ1 (calsequestrin 1) | 0.62 | 0.44 |
| TRA2B (transformer 2 beta homolog) | 1.44 | 0.95 |
| PELO (pelota mRNA surveillance and ribosome rescue factor) | 1.02 | 0.57 |
| KTN1 (kinectin 1) | 1 | 0.55 |
| NHLRC3 (NHL repeat containing 3) | 1.04 | 0.84 |
| ATP6V0B (ATPase H+ transporting V0 subunit b) | 1.34 | 0.78 |
| MT1B (metallothionein 1B) | 1 | 0.8 |
| MSH6 (mutS homolog 6) | 0.85 | 0.92 |
| AGAP3 (ArfGAP with GTPase domain, ankyrin repeat and PH domain 3) | 0.64 | 0.5 |
| PITX1 (paired like homeodomain 1) | 1.4 | 0.73 |
| RCC1L (RCC1 like) | 0.76 | 0.6 |
| STAG1 (STAG1 cohesin complex component) | 0.84 | 0.69 |
| LINC02910 (long intergenic non-protein coding RNA 2910) | 0.99 | 0.92 |
| COL1A1 (collagen type I alpha 1 chain) | 1 | 0.94 |
| STK16 (serine/threonine kinase 16) | 0.89 | 0.76 |
| BMAL1 (basic helix-loop-helix ARNT like 1) | 1.07 | 0.87 |
| LRIT2 (leucine rich repeat, Ig-like and transmembrane domains 2) | 1.06 | 0.88 |
| IGF2BP2 (insulin like growth factor 2 mRNA binding protein 2) | 1.16 | 0.8 |
| LELP1 (late cornified envelope like proline rich 1) | 0.7 | 0.6 |
| FAM24B (family with sequence similarity 24 member B) | 1.01 | 1.01 |
| MAD2L1 (mitotic arrest deficient 2 like 1) | 0.92 | 0.46 |
| GJA3 (gap junction protein alpha 3) | 1.35 | 0.62 |
| B3GALT1 (beta-1,3-galactosyltransferase 1) | 1.04 | 0.87 |
| RITA1 (RBPJ interacting and tubulin associated 1) | 0.81 | 0.76 |
| ZNF547 (zinc finger protein 547) | 0.87 | 0.48 |
| TRIM23 (tripartite motif containing 23) | 0.75 | 0.68 |
| PHF8 (PHD finger protein 8) | 1.02 | 0.82 |
| YTHDF3 (YTH N6-methyladenosine RNA binding protein F3) | 1.13 | 0.53 |
| THSD1 (thrombospondin type 1 domain containing 1) | 0.91 | 0.68 |
| ALKBH5 (alkB homolog 5, RNA demethylase) | 0.78 | 0.64 |
| USH1C (USH1 protein network component harmonin) | 1.52 | 0.82 |
| DDOST | 1.03 | 1 |
| OSGEPL1 (O-sialoglycoprotein endopeptidase like 1) | 1.02 | 0.82 |
| EHBP1 (EH domain binding protein 1) | 1.02 | 0.88 |
| ANKRD13C-DT (ANKRD13C divergent transcript) | 1.42 | 0.34 |
| NUDT22 (nudix hydrolase 22) | 0.99 | 0.78 |
| GPR137B (G protein-coupled receptor 137B) | 0.97 | 0.9 |
| POLA2 (DNA polymerase alpha 2, accessory subunit) | 0.97 | 0.62 |
| GALNS (galactosamine (N-acetyl)-6-sulfatase) | 0.69 | 0.62 |
| RASGEF1B (RasGEF domain family member 1B) | 1.24 | 0.94 |
| DHX9 (DExH-box helicase 9) | 1.2 | 1.03 |
| SPATA31A3 (SPATA31 subfamily A member 3) | 1.01 | 0.86 |
| CPEB3 (cytoplasmic polyadenylation element binding protein 3) | 0.84 | 0.67 |
| DCLRE1A (DNA cross-link repair 1A) | 0.99 | 0.69 |
| TFE3 (transcription factor binding to IGHM enhancer 3) | 0.98 | 0.98 |
| ATP6V1A (ATPase H+ transporting V1 subunit A) | 1.17 | 0.84 |
| DENND2C (DENN domain containing 2C) | 0.87 | 0.84 |
| ZDHHC9 (zDHHC palmitoyltransferase 9) | 0.99 | 0.76 |
| PIPOX (pipecolic acid and sarcosine oxidase) | 0.96 | 0.5 |
| OCIAD2 (OCIA domain containing 2) | 1.01 | 0.95 |
| ELOA (elongin A) | 0.8 | 0.9 |
| ATP1B4 (ATPase Na+/K+ transporting family member beta 4) | 0.92 | 0.94 |
| ABCC5 (ATP binding cassette subfamily C member 5) | 0.94 | 0.75 |
| MEF2C (myocyte enhancer factor 2C) | 0.98 | 1 |
| KRTAP10-7 (keratin associated protein 10-7) | 1.04 | 0.71 |
| CHMP7 (charged multivesicular body protein 7) | 0.92 | 0.68 |
| EFCAB5 (EF-hand calcium binding domain 5) | 1.26 | 0.88 |
| CBFA2T2 (CBFA2/RUNX1 partner transcriptional co-repressor 2) | 1 | 0.9 |
| WDR86 (WD repeat domain 86) | 0.91 | 0.88 |
| TYMSOS (TYMS opposite strand RNA) | 1.03 | 0.34 |
| CD1C (CD1c molecule) | 0.76 | 0.59 |
| SULF1 (sulfatase 1) | 0.92 | 0.88 |
| CCDC120 (coiled-coil domain containing 120) | 0.64 | 0.48 |
| RBM48 (RNA binding motif protein 48) | 0.96 | 0.92 |
| PRDM13 (PR/SET domain 13) | 0.86 | 0.31 |
| NSRP1 (nuclear speckle splicing regulatory protein 1) | 1.29 | 0.58 |
| DVL2 (dishevelled segment polarity protein 2) | 1.11 | 0.7 |
| DMKN (dermokine) | 1.03 | 0.33 |
| H1-8 (H1.8 linker histone) | 1.1 | 0.68 |
| SAP130 (Sin3A associated protein 130) | 1.13 | 0.59 |

Look-ups from above:
Under “CDH1-null / parental viability ratio”, SULF1 (sulfatase 1) reads 0.92
AGAP3 (ArfGAP with GTPase domain, ankyrin repeat and PH domain 3), CDH1-null viability vs mock (fraction of mock): 0.5
Result for FAM24B (family with sequence similarity 24 member B) in “CDH1-null viability vs mock (fraction of mock)”: 1.01
NHLRC3 (NHL repeat containing 3), CDH1-null viability vs mock (fraction of mock) = 0.84
Entry of EHBP1 (EH domain binding protein 1) under “CDH1-null / parental viability ratio”: 1.02
Under “CDH1-null / parental viability ratio”, TAOK1 (TAO kinase 1) is entered as 1.06
